These are yes or no findings as the source states them, for the method shown. In cells and extracts the contact can be indirect. These calls come from enrichment with a bait or labelling near it, and not all partners need be listed. Where a sequence is shown, tags or fusion partners need not be part of it.

Chains of the proteins cited; added tags and fusions are not shown.
UniProt Q8NDV7: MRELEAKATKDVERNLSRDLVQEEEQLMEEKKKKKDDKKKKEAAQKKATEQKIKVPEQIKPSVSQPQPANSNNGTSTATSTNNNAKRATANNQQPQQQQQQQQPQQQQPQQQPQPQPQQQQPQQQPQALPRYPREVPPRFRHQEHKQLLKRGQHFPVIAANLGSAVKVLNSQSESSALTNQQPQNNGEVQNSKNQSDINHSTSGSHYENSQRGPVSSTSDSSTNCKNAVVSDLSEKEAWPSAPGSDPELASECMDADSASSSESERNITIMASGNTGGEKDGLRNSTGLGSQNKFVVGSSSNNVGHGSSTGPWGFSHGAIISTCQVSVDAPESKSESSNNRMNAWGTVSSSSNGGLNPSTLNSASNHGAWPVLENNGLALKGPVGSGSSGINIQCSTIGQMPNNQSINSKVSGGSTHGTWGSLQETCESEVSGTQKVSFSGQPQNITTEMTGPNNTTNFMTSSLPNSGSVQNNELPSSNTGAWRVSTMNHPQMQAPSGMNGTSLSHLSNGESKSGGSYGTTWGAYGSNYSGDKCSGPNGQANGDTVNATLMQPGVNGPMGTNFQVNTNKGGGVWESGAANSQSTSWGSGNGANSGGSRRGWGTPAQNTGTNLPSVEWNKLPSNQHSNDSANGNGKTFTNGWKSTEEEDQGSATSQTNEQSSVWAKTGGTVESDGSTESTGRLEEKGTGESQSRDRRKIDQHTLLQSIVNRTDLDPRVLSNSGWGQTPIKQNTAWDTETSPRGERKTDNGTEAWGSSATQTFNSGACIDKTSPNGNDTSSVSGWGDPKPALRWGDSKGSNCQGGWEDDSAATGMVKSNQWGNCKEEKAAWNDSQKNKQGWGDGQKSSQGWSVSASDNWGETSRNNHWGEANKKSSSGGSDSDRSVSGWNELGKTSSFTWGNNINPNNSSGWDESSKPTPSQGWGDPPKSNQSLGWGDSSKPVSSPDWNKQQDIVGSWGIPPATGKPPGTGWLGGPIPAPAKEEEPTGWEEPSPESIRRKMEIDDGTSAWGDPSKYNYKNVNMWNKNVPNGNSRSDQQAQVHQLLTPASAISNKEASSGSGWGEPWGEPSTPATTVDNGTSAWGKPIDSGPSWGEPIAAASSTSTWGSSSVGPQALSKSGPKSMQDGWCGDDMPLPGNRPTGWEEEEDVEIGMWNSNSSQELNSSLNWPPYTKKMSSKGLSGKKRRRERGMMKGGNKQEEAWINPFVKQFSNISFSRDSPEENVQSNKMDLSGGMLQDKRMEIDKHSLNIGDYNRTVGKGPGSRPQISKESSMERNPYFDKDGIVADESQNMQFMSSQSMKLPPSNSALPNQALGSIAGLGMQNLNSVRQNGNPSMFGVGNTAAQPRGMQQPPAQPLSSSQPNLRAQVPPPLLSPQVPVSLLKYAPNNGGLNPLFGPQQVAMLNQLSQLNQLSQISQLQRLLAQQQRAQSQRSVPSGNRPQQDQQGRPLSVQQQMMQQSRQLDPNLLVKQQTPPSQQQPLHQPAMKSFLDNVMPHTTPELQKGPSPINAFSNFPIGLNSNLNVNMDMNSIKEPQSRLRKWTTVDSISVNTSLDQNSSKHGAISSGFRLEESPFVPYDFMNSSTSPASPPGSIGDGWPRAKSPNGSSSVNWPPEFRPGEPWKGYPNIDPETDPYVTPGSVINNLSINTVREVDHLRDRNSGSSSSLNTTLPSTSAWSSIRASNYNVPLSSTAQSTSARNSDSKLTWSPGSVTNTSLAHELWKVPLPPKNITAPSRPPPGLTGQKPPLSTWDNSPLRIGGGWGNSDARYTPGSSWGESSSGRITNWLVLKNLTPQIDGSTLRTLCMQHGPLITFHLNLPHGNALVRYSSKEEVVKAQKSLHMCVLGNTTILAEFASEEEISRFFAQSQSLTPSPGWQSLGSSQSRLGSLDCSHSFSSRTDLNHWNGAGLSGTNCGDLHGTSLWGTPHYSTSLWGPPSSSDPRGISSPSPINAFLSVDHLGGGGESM
UniProt O14980: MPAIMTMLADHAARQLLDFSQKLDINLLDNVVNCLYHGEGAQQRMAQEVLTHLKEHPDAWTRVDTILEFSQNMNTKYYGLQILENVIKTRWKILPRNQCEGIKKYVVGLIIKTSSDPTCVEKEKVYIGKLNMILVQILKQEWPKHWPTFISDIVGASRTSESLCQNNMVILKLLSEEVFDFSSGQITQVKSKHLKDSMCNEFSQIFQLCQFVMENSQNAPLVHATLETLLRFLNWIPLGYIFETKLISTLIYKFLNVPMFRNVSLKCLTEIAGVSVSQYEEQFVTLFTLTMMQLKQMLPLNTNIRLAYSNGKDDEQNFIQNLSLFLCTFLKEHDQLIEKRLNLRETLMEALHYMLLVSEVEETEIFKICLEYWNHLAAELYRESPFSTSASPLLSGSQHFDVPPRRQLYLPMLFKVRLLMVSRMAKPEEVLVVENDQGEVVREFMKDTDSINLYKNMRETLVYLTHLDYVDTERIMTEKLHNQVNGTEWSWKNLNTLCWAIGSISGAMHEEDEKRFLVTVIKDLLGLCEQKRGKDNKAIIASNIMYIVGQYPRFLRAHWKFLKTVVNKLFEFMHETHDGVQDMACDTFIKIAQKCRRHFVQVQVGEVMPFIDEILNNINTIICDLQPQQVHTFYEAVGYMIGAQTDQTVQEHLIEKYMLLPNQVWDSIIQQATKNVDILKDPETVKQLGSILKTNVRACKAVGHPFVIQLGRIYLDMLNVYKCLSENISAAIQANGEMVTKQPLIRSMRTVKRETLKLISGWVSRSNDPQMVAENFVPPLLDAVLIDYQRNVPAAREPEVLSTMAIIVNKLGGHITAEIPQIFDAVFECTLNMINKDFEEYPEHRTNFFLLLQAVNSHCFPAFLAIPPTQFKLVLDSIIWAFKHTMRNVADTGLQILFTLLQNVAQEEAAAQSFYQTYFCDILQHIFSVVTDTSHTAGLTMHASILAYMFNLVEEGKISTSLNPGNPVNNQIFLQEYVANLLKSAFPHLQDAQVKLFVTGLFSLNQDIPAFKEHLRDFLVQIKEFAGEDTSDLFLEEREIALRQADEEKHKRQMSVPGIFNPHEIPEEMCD

We go through four molecules from article PMC9270398.

The target of this assay is T1, GFP-TRIM24 fusion protein (tripartite motif-containing 24) (not stated (human or mouse cDNA cloned)) (UniProt O15164).
T1 sequence: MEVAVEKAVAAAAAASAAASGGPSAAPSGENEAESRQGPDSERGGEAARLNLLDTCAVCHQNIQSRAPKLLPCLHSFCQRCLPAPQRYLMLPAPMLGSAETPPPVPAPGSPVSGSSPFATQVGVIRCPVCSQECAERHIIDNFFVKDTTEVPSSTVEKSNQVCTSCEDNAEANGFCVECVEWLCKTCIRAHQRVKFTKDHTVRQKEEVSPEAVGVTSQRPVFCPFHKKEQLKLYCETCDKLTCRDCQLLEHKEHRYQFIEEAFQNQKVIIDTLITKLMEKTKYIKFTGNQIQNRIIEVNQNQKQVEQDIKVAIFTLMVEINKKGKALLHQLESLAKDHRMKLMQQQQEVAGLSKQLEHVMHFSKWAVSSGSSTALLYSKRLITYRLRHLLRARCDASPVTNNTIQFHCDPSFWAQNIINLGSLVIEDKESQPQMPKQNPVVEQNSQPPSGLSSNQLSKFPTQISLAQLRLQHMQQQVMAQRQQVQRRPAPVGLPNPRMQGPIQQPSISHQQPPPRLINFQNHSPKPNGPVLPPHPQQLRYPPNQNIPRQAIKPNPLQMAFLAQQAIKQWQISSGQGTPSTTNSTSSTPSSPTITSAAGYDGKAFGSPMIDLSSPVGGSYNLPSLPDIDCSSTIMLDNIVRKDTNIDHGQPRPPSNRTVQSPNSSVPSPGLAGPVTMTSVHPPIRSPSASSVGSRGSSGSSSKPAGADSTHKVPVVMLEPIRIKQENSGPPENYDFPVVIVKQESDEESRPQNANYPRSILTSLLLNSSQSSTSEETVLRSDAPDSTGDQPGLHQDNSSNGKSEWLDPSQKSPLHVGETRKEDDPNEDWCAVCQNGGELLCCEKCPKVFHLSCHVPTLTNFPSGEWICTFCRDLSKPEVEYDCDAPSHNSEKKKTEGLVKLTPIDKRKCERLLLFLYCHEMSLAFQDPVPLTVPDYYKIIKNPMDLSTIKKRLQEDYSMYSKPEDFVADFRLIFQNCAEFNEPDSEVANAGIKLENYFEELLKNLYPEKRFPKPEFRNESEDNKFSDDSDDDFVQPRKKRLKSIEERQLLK
Briefly: affinity purification with mass spectrometry; GFP-TRIM24 (free GFP as control) expressed in HEK293 cells, immunoprecipitated from lysates with GFP-Trap-agarose, SDS-PAGE, LC-MS/MS.

On to “GW182 protein, endogenous in HEK293 cells (from UniProt Q8NDV7 1-1962)”, for which the binding entry is reported as “binds”.
The same measure for “XPO1 (exportin-1), endogenous in HEK293 cells (from UniProt O14980 1-1071)”: “binds”.

B1: EDC4 (enhancer of decapping protein 4), endogenous in HEK293 cells (protein, UniProt Q6P2E9-1 1-1401)
chain: MASCASIDIEDATQHLRDILKLDRPAGGPSAESPRPSSAYNGDLNGLLVPDPLCSGDSTSANKTGLRTMPPINLQEKQVICLSGDDSSTCIGILAKEVEIVASSDSSISSKARGSNKVKIQPVAKYDWEQKYYYGNLIAVSNSFLAYAIRAANNGSAMVRVISVSTSERTLLKGFTGSVADLAFAHLNSPQLACLDEAGNLFVWRLALVNGKIQEEILVHIRQPEGTPLNHFRRIIWCPFIPEESEDCCEESSPTVALLHEDRAEVWDLDMLRSSHSTWPVDVSQIKQGFIVVKGHSTCLSEGALSPDGTVLATASHDGYVKFWQIYIEGQDEPRCLHEWKPHDGRPLSCLLFCDNHKKQDPDVPFWRFLITGADQNRELKMWCTVSWTCLQTIRFSPDIFSSVSVPPSLKVCLDLSAEYLILSDVQRKVLYVMELLQNQEEGHACFSSISEFLLTHPVLSFGIQVVSRCRLRHTEVLPAEEENDSLGADGTHGAGAMESAAGVLIKLFCVHTKALQDVQIRFQPQLNPDVVAPLPTHTAHEDFTFGESRPELGSEGLGSAAHGSQPDLRRIVELPAPADFLSLSSETKPKLMTPDAFMTPSASLQQITASPSSSSSGSSSSSSSSSSSLTAVSAMSSTSAVDPSLTRPPEELTLSPKLQLDGSLTMSSSGSLQASPRGLLPGLLPAPADKLTPKGPGQVPTATSALSLELQEVEPLGLPQASPSRTRSPDVISSASTALSQDIPEIASEALSRGFGSSAPEGLEPDSMASAASALHLLSPRPRPGPELGPQLGLDGGPGDGDRHNTPSLLEAALTQEASTPDSQVWPTAPDITRETCSTLAESPRNGLQEKHKSLAFHRPPYHLLQQRDSQDASAEQSDHDDEVASLASASGGFGTKVPAPRLPAKDWKTKGSPRTSPKLKRKSKKDDGDAAMGSRLTEHQVAEPPEDWPALIWQQQRELAELRHSQEELLQRLCTQLEGLQSTVTGHVERALETRHEQEQRRLERALAEGQQRGGQLQEQLTQQLSQALSSAVAGRLERSIRDEIKKTVPPCVSRSLEPMAGQLSNSVATKLTAVEGSMKENISKLLKSKNLTDAIARAAADTLQGPMQAAYREAFQSVVLPAFEKSCQAMFQQINDSFRLGTQEYLQQLESHMKSRKAREQEAREPVLAQLRGLVSTLQSATEQMAATVAGSVRAEVQHQLHVAVGSLQESILAQVQRIVKGEVSVALKEQQAAVTSSIMQAMRSAAGTPVPSAHLDCQAQQAHILQLLQQGHLNQAFQQALTAADLNLVLYVCETVDPAQVFGQPPCPLSQPVLLSLIQQLASDLGTRTDLKLSYLEEAVMHLDHSDPITRDHMGSVMAQVRQKLFQFLQAEPHNSLGKAARRLSLMLHGLVTPSLP
In the case of B1, the binding result is “binds”.

B2: LSM1, endogenous in HEK293 cells (protein, UniProt O15116 1-133)
chain: MNYMPGTASLIEDIDKKHLVLLRDGRTLIGFLRSIDQFANLVLHQTVERIHVGKKYGDIPRGIFVVRGENVVLLGEIDLEKESDTPLQQVSIEEILEEQRVEQQTKLEAEKLKVQALKDRGLSIPRADTLDEY
Consider B2, for which the binding entry is given as “binds”.
